Binding data for five substances are collected here from paper PMC3480639.

By UniProt entry, the sequences of proteins in these tests, tags left out.
UniProt P62207: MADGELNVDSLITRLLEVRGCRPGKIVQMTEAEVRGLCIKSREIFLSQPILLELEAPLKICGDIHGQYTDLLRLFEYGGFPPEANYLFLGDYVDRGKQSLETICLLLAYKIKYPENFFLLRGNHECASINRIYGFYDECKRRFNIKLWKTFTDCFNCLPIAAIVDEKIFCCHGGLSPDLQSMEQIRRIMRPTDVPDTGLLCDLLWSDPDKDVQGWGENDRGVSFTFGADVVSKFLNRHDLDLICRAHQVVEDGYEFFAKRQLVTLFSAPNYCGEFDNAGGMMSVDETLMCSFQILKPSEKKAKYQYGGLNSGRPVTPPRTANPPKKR

The target of assay [1] is T1, TrAP:hRepo-Man^WT (human) (UniProt Q69YH5).
T1 sequence: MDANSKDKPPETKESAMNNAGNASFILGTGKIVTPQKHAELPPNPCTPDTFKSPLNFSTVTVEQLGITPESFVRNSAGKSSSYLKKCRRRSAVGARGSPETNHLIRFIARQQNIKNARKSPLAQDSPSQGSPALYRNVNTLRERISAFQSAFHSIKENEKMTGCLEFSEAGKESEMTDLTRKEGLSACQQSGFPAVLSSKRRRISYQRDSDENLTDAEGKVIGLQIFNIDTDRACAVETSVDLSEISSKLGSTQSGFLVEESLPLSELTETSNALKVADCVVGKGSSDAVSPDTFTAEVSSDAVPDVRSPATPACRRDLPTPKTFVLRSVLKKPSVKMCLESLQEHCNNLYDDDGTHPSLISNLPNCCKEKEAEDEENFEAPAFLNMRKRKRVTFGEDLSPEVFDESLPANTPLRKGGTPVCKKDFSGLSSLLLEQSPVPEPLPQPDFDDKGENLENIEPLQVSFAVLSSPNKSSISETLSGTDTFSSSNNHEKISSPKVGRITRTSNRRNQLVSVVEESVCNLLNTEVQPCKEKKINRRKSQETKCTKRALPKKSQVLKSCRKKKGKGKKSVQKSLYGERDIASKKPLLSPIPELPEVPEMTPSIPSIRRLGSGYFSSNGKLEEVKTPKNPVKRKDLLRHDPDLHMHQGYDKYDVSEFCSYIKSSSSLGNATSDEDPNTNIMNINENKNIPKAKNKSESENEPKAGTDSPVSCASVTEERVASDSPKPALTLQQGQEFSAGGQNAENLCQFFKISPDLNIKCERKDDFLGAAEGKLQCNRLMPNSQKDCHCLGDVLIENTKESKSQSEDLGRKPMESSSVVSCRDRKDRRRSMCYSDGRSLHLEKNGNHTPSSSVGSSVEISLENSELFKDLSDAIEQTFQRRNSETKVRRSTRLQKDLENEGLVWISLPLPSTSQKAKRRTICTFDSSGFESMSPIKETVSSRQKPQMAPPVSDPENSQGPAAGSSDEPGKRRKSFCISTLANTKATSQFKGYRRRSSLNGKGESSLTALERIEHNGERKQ
Kind of assay: affinity purification with mass spectrometry; SILAC pull-downs from DT40 cells: Repo-Man plus roscovitine (anaphase) against minus roscovitine (prometaphase), and Repo-Man against TrAP:GFP (both roscovitine-treated).

Assay [2] has as its target T1, TrAP:hRepo-Man^WT (human). Kind of assay: affinity purification with mass spectrometry; TrAP-tagged Repo-Man from DT40 cells blocked with colcemid and forced to exit mitosis with roscovitine; proteins solubilised from the chromosome fraction, streptavidin beads then S-protein column.

Results are given in words; binding and its absence hold for the method and conditions named. Binding seen in cells or lysates may run through a third protein. Here binding means that the protein was enriched with, or labelled near, the bait; the list need not be complete.

In the case of “Importin α (endogenous, DT40) (chicken (endogenous in DT40))”, in assay [1], the binding entry is listed as “binds”.

For the substance “Importin β (endogenous, DT40) (chicken (endogenous in DT40))”, the binding result in assay [1] and in assay [2] was “binds” in each case.

For the substance “NUP50 (endogenous, DT40) (chicken (endogenous in DT40))”, the binding result in assay [2] is recorded as “binds”.

As to “NUP153 (endogenous, DT40) (chicken (endogenous in DT40))”, the binding result in assay [1] and in assay [2] was “binds” in each case.

In the case of “PP1β (endogenous, DT40) (from UniProt P62207 1-327) (enzyme)”, the binding result in assay [1] and in assay [2] was “binds” each time.
